SMILES strings stand for the structures.

A word on the Papp B→A: it is how fast a substance crosses the layer from the basolateral side. Broadly, the Papp A→B is how fast a substance crosses the layer from the apical side. High values mean fast passage, low ones slow passage.

The nature of data set [1]: in vitro. Conditions: human, Caco-2.
Data set [2] is described as follows: in vitro. Conditions: human, Caco-2. The source holds these as a separate data set.

Consider `Cc1cnc(NCCc2ccc(C(F)(F)F)cc2)c(=O)n1CC(=O)NCCONC(=N)N`, for which the Papp B→A in data set [1] was 3.32 ×10⁻⁶ cm/s. The compound further displayed a Papp A→B in data set [2] of 0.74 ×10⁻⁶ cm/s.

Source of the values: ChEMBL document CHEMBL1154904 (J Med Chem, 2010).
